For data set [1] the following is noted: mouse, in vivo. On the procedure:
The analgesic action was detected in mouse, rat, guinea pig and dog. The mouse was subjected to hot plate and writhing tests; the rat to tail-flick and paw-pressure tests; the guinea pig to paw-pressure test only; the dog to the test described by Vainio et al. [J. Vet. Pharmacol. Ther., 12, 225-231 (1989)] using an electric stimulation. Consequently, the claimed compounds were tested with pain being induced by stimuli of different nature: thermal (hot plate and tail flick), chemical (writhing by acetic acid), mechanical (paw pressure) and electrical (cutaneous stimulation).
(§1) Potency, efficacy and toxicity of SM21, PG9 and SM32 in comparison with
(§2) four principal reference analgesic drugs tested in mouse. As analgesic

A short description of data set [2]: in vivo. The note with it: mouse, sc.
Description: as §1, §2

The nature of data set [3]: in vivo. Conditions: mouse, sc. An excerpt: All products tested to detect their antinociceptive activity had been previously tested by the rota-rod test to determine their maximum utilizable dose in analgesic tests. In fact, by this test it is possible to determine the highest dose of drug not impairing the normal performance of animals in a test that simultaneously evaluates motor coordination, equilibrium, resistance to fatigue, and muscle strength. This test is meant to evaluate the capability of mice to stay balanced on a rotating rod [cf. Vaught et al., Neuropharmacology, 24 (3) 211-216 (1985)].
The calculated doses were those used in the two analgesic tests on mice.
The source holds these as a separate data set.

For data set [4], the system named is presynaptic muscarinic autoreceptor. Conditions: cited from earlier work.

Where “and” joins values, the source holds several entries; their conditions need not be identical. Equal values may be shown once.

Consider `CN(C)CCOC(c1ccccc1)c1ccccc1` [Diphenhydramine], for which the “Efficacy as analgesic (Morphine = 100), AUC (Area Under Curve)” value in data set [1] came out at 28. In data set [2], the LD50 was 127 mg/kg and 497 µmol/kg. The same compound had an NOAEL in data set [3] of 20.5 mg/kg.
With `CN1CC[C@]23c4c5ccc(O)c4O[C@H]2[C@@H](O)C=C[C@H]3[C@H]1C5.Cl` [Morphine HCl], in data set [2], the LD50 is 531 mg/kg and 1650 µmol/kg. Further, the NOAEL in data set [3] turned out to be 8.2 mg/kg.
For the compound `CCN(CC)CC(=O)Nc1c(C)cccc1C` [lidocaine], the “selectivity and efficacy as antagonists of the presynaptic muscarinic autoreceptor” value in data set [4] was “little selective as well as little efficacious”.

Values taken from patent US5583142A, “Analgesic and nootropic drugs” (priority 1992, dated 1996).
